Test results from US20100291682, “SYSTEM FOR TRANSPOSING HYPERACTIVE RECOMBINANT DERIVATIVES OF MOS-1 TRANSPOSON” (published 2010).

target: T1, MBP-Mos-1 transposase (MBP-Tnp) (Drosophila mauritiana) (UniProt Q7JQ07); assay: competition with a labelled probe; details: does not displace labelled ITR3' up to 1500 nM; purified recombinant protein; protein details: N-terminal MBP (pMalC2x)
T1 sequence: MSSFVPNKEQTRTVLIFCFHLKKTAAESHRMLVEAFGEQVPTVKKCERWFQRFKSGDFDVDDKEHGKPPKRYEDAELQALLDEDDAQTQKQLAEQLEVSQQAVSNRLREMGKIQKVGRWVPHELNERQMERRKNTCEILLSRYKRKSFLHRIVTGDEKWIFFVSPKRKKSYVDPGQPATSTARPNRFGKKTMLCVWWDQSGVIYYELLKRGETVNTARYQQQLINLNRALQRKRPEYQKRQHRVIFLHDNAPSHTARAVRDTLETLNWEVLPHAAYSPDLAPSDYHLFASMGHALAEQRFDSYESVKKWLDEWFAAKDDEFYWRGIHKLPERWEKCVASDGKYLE

Binding result, no binding:
ATAGTGTTTAAAGCTTACT (double strand) [ITRSelex SEQ 44]
GAAGAGTTATAACTCAAGAAAACTGAAT (double strand) [ITRSelex SEQ 41]
GGAGAAATGGTAGAATAGTTTA (double strand) [ITRSelex SEQ 43]
CGATTACAATTATGAAAACTTTCCT (double strand) [ITRSelex SEQ 42]
GCGGGTGTGAAAATATGAAATATTCACT (double strand) [ITRSelex SEQ 40]
GTCAGTGATGTCACCAACGTATGGAATATCGTAT (double strand) [ITRSelex SEQ 45]

target: Maltose binding protein (MBP) (UniProt P0AEX9); assay: pull-down; details: MBP control has no affinity for ITRs; purified recombinant protein; protein details: pMalC2x, New England Biolabs; label: 32P

Binding result, no binding:
TCAGGTGTACAAGTATGAAATGTCGTTT (double strand) [Mos-1 ITR3']

A negative result means that nothing was seen under these conditions. For some of these results: Where a protein sequence is shown, tags need not be part of it. For some of these results: For at least one entry, the source does not settle the construct or the ends of the probe.
